In patent publication CN1618813A:
These are yes or no findings as the source states them, for the method shown. In cells and extracts the contact can be indirect. Some binding calls cover weakened binding; strength is not graded here. Sequences can lack the tags named with a protein.

Protein sequences, listed by entry. Tags and fused reporters are not part of them. Lines headed by an entry give the natural chain unless they say otherwise; changes in a name come on top.
UniProt P61201: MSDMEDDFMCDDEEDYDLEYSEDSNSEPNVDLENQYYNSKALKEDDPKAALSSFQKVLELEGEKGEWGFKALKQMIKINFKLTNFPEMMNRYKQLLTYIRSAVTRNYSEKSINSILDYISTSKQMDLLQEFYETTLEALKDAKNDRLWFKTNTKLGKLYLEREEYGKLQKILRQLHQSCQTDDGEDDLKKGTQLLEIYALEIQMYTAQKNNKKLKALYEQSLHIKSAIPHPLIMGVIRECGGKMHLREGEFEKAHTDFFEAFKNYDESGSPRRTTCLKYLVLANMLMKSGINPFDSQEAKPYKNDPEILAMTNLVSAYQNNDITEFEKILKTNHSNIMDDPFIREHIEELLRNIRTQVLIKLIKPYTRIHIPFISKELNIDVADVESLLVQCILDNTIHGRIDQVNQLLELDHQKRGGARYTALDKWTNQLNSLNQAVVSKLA

Target: 甲状腺素受体相互作用蛋白15 (thyroid receptor interacting protein 15, TRIP15) (human) (UniProt P61201)
Assay: in vitro precipitation (pull-down) of human TRIP15 protein by the GST-scFv fusion

B1: GST-抗TRIP15单链抗体的融合蛋白 (GST-fused anti-TRIP15 single-chain antibody) (scFv)
chain: EVQLLESGGGLVQPGGSLRLSCAASGFTFSSYAMSWVRQAPGKGLEWVSSISNDGLKTLYADSVKGRFTISRDNSKNTLYLQMNSLRAEDTAVYYCAKNTGSFDYWGQGTLVTVSSGGGGSGGGGSGGSAQDIQMTQSPSSLSASVGDRVTITCRASQSISSYLNWYQQKPGKAPKLLIYRASNLQSGVPSRFSGSGSGTDFTLTISSLQPEDFATYYCQQVLRRPATFGQGTKVEIKR
For B1, the binding was “binds”.
